Measurements published in the supplement of paper PMC12823440, “Inhibitors supercharge kinase turnover through native proteolytic circuits” (Nature, 2025).
Counter-ions that a name gives are not always drawn. The list shows a part of the results. Hit calls seldom repeat between salt and free forms of one compound.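 Kinases were expressed as nanoluciferase fusions in K562 cells and luminescence was read every 4 h between 2 and 18 h as percent of control, DMSO set to 100% and a positive control to 0%. A time point counts as decreased when the signal drops significantly (2 sigma). The hit call is the authors' own, does not follow from the count of time points alone, and its rule is not shown.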

The chains behind the UniProt entries cited, without tags or fusion partners. Where a name states a change or a piece, a line headed by the entry shows the natural chain unless it says otherwise.
UniProt P23458: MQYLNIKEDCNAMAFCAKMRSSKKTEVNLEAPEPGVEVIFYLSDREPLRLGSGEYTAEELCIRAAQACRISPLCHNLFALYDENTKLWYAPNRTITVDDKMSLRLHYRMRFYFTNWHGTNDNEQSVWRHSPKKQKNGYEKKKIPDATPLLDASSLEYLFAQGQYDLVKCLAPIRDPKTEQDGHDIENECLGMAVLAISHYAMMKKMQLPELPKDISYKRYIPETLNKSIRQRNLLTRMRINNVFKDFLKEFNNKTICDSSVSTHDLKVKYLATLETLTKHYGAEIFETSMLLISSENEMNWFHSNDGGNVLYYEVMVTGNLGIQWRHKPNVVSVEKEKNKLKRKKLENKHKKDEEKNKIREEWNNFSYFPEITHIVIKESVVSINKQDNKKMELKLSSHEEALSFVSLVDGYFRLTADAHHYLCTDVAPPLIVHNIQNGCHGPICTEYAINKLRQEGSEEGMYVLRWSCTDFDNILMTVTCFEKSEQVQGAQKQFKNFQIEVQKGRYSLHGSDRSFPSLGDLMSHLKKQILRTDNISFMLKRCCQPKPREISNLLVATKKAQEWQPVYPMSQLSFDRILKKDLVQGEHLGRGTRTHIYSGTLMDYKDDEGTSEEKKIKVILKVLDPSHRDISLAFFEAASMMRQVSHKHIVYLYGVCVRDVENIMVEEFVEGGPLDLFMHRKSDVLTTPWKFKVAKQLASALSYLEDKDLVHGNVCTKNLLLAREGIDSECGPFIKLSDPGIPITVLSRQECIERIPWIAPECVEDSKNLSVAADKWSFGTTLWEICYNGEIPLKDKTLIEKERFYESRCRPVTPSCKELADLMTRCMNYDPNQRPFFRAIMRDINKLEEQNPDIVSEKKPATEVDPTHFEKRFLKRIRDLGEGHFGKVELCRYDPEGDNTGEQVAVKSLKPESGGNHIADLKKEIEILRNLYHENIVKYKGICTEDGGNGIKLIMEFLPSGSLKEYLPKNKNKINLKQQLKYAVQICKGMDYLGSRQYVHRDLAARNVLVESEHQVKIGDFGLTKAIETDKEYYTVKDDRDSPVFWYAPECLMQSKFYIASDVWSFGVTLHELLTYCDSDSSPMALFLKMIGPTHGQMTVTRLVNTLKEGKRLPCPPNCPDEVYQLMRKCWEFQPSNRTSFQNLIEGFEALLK
UniProt P53667: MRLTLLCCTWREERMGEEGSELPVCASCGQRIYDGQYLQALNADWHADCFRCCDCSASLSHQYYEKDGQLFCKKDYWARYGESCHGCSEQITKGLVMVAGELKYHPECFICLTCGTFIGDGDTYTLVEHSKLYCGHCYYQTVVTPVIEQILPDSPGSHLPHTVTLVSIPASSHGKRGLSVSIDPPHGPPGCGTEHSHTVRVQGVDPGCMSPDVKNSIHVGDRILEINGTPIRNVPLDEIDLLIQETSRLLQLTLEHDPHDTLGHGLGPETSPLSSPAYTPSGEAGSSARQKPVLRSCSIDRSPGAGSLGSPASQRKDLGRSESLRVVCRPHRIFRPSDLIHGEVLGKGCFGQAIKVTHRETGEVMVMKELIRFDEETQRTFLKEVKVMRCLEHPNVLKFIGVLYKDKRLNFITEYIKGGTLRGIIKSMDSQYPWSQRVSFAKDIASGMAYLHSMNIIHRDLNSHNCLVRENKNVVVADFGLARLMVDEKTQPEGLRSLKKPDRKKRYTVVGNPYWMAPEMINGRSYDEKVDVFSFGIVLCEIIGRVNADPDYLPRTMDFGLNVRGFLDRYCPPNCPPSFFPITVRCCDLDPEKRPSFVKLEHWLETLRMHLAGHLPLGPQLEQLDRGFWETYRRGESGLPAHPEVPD
UniProt P07948: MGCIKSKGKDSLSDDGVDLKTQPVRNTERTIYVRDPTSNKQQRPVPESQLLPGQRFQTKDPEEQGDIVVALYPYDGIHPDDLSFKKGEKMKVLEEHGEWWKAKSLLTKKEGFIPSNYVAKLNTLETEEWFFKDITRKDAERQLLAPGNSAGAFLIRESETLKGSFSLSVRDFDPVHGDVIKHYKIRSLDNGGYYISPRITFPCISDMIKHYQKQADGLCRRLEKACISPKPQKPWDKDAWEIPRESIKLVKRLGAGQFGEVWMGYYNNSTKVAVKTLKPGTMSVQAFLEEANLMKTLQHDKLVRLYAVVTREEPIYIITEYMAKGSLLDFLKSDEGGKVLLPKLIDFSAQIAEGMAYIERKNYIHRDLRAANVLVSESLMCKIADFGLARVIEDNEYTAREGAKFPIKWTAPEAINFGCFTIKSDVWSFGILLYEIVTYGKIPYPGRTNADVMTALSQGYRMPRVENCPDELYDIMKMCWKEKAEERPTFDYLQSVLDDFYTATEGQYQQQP
UniProt Q9BUB5: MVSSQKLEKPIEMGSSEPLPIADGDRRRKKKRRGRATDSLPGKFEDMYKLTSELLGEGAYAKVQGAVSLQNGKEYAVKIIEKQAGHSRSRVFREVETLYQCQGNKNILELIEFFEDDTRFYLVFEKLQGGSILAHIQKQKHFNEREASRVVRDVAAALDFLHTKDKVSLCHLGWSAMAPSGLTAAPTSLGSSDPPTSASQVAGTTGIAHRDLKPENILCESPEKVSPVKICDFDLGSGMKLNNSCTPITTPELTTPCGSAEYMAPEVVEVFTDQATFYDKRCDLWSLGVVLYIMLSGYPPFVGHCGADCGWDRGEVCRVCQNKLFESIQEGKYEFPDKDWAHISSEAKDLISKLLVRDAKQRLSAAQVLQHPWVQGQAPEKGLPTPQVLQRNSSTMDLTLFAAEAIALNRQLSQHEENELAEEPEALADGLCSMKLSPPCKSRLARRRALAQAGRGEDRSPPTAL
UniProt Q16620, whole entry, looked up: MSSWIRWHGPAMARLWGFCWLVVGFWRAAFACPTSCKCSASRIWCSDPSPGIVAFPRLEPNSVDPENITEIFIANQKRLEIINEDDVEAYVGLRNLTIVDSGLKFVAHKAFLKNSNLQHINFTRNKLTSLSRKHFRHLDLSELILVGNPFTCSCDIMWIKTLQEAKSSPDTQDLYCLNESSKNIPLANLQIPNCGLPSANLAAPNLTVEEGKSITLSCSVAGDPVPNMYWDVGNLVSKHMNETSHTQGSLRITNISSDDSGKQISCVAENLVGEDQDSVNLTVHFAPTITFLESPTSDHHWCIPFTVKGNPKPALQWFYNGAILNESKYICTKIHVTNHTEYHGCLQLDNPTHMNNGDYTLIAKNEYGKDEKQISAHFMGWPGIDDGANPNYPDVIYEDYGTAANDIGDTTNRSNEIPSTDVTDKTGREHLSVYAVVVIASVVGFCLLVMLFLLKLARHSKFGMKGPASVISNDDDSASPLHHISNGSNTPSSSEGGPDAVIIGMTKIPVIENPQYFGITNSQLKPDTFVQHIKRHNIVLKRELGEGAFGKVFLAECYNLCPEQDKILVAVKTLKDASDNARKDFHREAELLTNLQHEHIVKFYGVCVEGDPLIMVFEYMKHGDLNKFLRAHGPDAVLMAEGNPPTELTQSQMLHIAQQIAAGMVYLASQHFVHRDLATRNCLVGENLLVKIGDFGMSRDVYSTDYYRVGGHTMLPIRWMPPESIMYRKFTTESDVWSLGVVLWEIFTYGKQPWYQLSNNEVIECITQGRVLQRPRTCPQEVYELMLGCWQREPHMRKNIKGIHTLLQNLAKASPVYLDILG
UniProt Q16288, whole entry, looked up: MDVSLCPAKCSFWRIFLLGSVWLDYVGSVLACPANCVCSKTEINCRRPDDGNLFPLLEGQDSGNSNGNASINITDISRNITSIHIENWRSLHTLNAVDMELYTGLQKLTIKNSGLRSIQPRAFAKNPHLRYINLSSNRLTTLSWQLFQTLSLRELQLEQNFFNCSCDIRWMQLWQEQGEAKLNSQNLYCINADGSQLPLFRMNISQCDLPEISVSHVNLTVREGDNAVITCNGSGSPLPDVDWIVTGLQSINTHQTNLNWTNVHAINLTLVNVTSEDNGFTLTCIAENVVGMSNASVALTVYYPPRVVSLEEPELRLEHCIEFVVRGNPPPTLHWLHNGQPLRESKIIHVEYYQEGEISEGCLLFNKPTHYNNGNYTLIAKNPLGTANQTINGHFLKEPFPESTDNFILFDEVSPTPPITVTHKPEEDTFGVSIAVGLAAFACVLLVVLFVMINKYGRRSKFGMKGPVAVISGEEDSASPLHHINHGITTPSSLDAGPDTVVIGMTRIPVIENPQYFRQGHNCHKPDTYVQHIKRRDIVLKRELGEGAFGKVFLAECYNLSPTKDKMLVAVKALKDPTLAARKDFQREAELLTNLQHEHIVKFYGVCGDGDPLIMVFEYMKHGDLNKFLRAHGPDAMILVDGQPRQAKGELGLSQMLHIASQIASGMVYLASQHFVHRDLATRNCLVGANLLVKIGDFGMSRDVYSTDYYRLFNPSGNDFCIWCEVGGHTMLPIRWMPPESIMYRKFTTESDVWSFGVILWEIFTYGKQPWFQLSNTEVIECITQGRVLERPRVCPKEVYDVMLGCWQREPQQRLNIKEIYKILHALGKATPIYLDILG
UniProt O96013: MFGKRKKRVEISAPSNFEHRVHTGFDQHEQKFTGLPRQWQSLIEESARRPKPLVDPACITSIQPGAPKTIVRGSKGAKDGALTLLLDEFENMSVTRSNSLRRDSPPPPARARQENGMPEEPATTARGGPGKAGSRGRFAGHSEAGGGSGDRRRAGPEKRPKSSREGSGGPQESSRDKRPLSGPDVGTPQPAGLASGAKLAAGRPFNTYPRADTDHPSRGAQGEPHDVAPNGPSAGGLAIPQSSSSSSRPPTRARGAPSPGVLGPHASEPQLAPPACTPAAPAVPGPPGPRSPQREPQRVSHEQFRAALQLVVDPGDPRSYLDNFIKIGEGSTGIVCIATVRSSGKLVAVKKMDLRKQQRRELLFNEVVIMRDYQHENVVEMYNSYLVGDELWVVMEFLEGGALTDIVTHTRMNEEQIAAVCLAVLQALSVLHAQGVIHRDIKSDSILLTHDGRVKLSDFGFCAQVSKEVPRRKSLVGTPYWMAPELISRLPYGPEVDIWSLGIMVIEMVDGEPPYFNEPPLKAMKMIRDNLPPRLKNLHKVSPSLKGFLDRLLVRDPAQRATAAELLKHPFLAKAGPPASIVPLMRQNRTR
UniProt Q96KB5: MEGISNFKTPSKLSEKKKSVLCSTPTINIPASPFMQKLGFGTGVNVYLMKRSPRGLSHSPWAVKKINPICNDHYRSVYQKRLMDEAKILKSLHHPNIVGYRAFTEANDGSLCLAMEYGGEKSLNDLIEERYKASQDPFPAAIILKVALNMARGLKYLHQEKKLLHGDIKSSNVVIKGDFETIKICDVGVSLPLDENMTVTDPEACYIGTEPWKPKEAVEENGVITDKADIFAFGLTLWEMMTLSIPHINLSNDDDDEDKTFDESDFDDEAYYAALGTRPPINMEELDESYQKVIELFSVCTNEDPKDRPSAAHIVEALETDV
UniProt P09619, whole entry: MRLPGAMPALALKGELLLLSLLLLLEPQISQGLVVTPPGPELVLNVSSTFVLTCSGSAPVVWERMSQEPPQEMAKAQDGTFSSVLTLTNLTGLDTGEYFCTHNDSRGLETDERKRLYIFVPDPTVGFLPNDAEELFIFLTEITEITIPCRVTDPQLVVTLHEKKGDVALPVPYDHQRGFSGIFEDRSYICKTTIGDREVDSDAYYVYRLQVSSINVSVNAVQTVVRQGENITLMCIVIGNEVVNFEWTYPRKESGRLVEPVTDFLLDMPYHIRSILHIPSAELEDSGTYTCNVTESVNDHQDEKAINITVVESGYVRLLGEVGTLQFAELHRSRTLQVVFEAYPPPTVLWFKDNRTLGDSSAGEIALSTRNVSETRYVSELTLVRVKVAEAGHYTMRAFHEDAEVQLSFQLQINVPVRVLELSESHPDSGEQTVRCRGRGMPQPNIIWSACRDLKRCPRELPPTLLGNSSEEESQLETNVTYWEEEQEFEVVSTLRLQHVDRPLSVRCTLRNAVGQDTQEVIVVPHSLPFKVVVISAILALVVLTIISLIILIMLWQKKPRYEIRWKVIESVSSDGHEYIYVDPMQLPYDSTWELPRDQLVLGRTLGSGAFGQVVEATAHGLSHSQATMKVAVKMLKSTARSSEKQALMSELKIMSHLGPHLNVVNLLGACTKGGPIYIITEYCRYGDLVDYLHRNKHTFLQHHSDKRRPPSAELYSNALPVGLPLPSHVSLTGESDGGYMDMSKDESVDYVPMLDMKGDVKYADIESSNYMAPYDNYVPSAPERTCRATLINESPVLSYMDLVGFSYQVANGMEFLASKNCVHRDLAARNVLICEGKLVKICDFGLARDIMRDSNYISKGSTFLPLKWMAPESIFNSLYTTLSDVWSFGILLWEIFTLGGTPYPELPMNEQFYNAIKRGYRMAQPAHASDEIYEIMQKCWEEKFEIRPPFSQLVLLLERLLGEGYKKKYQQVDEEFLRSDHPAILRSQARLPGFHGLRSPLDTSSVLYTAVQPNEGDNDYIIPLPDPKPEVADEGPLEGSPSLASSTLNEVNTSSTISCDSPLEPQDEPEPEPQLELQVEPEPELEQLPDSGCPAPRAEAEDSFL

Columns and labels:
Experiment in all cases: kinase-Nluc reporter destabilization hit call (1 = scored as downregulated) (binary); higher = compound decreases kinase abundance
Details in all cases: K562; 2-18 h
[1] = target: IRAK3 (UniProt Q9Y616)
[2] = target: JAK1 (UniProt P23458)
[3] = target: LCK (UniProt P06239)
[4] = target: LIMK1 (UniProt P53667)
[5] = target: LIMK2 (UniProt P53671)
[6] = target: LMTK2 (UniProt Q8IWU2)
[7] = target: LYN (UniProt P07948)
[8] = target: MAP2K1 (UniProt Q02750)
[9] = target: MAP2K2 (UniProt P36507)
[10] = target: MAP4K2 (UniProt Q12851)
[11] = target: MAPK1 (UniProt P28482)
[12] = target: MAPK4 (UniProt P31152)
[13] = target: MAPKAPK2 (UniProt P49137)
[14] = target: MKNK1 (UniProt Q9BUB5)
[15] = target: NTRK2 (UniProt Q16620)
[16] = target: NTRK3 (UniProt Q16288)
[17] = target: PAK4 (UniProt O96013)
[18] = target: PBK (UniProt Q96KB5)
[19] = target: PDGFRB (UniProt P09619)
[20] = target: PDK1 (UniProt Q15118)

Measured: kinase-Nluc reporter destabilization hit call

CS(=O)(=O)N1CCN(Cc2cn3cc(-c4cnc(N)nc4)nc(N4CCOCC4)c3n2)CC1 (10 µM)
inactive: [1] 0 | [2] 0 | [3] 0 | [4] 0 | [5] 0 | [6] 0 | [7] 0 | [8] 0 | [9] 0 | [10] 0 | [11] 0 | [12] 0 | [13] 0 | [14] 0 | [15] 0 | [16] 0 | [17] 0 | [18] 0 | [19] 0 | [20] 0

CN(C)CCCn1cc(C2=C(c3c[nH]c4ccccc34)C(=O)NC2=O)c2ccccc21 [Bisindolylmaleimide I] (2.5 µM)
inactive: [1] 0 | [2] 0 | [3] 0 | [4] 0 | [5] 0 | [6] 0 | [7] 0 | [8] 0 | [9] 0 | [10] 0 | [11] 0 | [12] 0 | [13] 0 | [14] 0 | [15] 0 | [16] 0 | [17] 0 | [18] 0 | [19] 0 | [20] 0

CCn1c(-c2nonc2N)nc2c(C#CCO)ncc(OCCCN)c21 [AKT Kinase Inhibitor] (10 µM)
inactive: [1] 0 | [2] 0 | [3] 0 | [4] 0 | [5] 0 | [6] 0 | [7] 0 | [8] 0 | [9] 0 | [10] 0 | [11] 0 | [12] 0 | [13] 0 | [14] 0 | [15] 0 | [16] 0 | [17] 0 | [18] 0 | [19] 0 | [20] 0

C=CCN(/C=C1/C(=O)O[C@H](COC)[C@@]2(C)C1=C(O)C(=O)C1=C2[C@H](OC(C)=O)C[C@]2(C)C(=O)CC[C@@H]12)CC=C [Sonolisib] (2.5 µM)
inactive: [1] 0 | [2] 0 | [3] 0 | [4] 0 | [5] 0 | [6] 0 | [7] 0 | [8] 0 | [9] 0 | [10] 0 | [11] 0 | [12] 0 | [13] 0 | [14] 0 | [15] 0 | [16] 0 | [17] 0 | [18] 0 | [19] 0 | [20] 0

Cc1cc([N+](=O)[O-])c(NS(=O)(=O)c2cccc(C(=O)O)c2)cc1-c1cccnc1 [Alofanib] (10 µM)
inactive: [1] 0 | [2] 0 | [3] 0 | [4] 0 | [5] 0 | [6] 0 | [7] 0 | [8] 0 | [9] 0 | [10] 0 | [11] 0 | [12] 0 | [13] 0 | [14] 0 | [15] 0 | [16] 0 | [17] 0 | [18] 0 | [19] 0 | [20] 0

O=C1c2c(O)cc(O)cc2O[C@H](c2cc(O)c(O)c(O)c2)[C@H]1O [Dihydromyricetin] (10 µM)
inactive: [1] 0 | [2] 0 | [3] 0 | [4] 0 | [5] 0 | [6] 0 | [7] 0 | [8] 0 | [9] 0 | [10] 0 | [11] 0 | [12] 0 | [13] 0 | [14] 0 | [15] 0 | [16] 0 | [17] 0 | [18] 0 | [19] 0 | [20] 0

CC[C@@H]1CN(C(=O)NCC(F)(F)F)C[C@@H]1c1cnc2cnc3[nH]ccc3n12 [Upadacitinib] (10 µM)
inactive: [1] 0 | [2] 0 | [3] 0 | [4] 0 | [5] 0 | [6] 0 | [7] 0 | [8] 0 | [9] 0 | [10] 0 | [11] 0 | [12] 0 | [13] 0 | [14] 0 | [15] 0 | [16] 0 | [17] 0 | [18] 0 | [19] 0 | [20] 0

Cn1cc(C2=C(c3c4n(c5ccccc35)CCC(CN)C4)C(=O)NC2=O)c2ccccc21 (stereo not given) [Bisindolylmaleimide X (hydrochloride)] (2.5 µM)
inactive: [1] 0 | [2] 0 | [3] 0 | [4] 0 | [5] 0 | [6] 0 | [7] 0 | [8] 0 | [9] 0 | [10] 0 | [11] 0 | [12] 0 | [13] 0 | [14] 0 | [15] 0 | [16] 0 | [17] 0 | [18] 0 | [19] 0 | [20] 0

C=CC(=O)N[C@H]1CCOC[C@H]1Nc1ncc2cc(-c3c(Cl)c(OC)cc(OC)c3Cl)ccc2n1 [Fisogatinib] (10 µM)
inactive: [1] 0 | [2] 0 | [3] 0 | [4] 0 | [5] 0 | [6] 0 | [7] 0 | [8] 0 | [9] 0 | [10] 0 | [11] 0 | [12] 0 | [13] 0 | [14] 0 | [15] 0 | [16] 0 | [17] 0 | [18] 0 | [19] 0 | [20] 0

CC(C)(O)c1cc(Nc2cc(Oc3cn(C4CC4)nc3C3CCOCC3)ccn2)ccn1 (10 µM)
inactive: [1] 0 | [2] 0 | [3] 0 | [4] 0 | [5] 0 | [6] 0 | [7] 0 | [8] 0 | [9] 0 | [10] 0 | [11] 0 | [12] 0 | [13] 0 | [14] 0 | [15] 0 | [16] 0 | [17] 0 | [18] 0 | [19] 0 | [20] 0

2 successive compounds out of the list so far, quoted:
CC[C@@H]1CN(C(=O)NCC(F)(F)F)C[C@@H]1c1cnc2cnc3[nH]ccc3n12 [Upadacitinib] (10 µM)
inactive: [1] 0 | [2] 0 | [3] 0 | [4] 0 | [5] 0 | [6] 0 | [7] 0 | [8] 0 | [9] 0 | [10] 0 | [11] 0 | [12] 0 | [13] 0 | [14] 0 | [15] 0 | [16] 0 | [17] 0 | [18] 0 | [19] 0 | [20] 0

Cn1cc(C2=C(c3c4n(c5ccccc35)CCC(CN)C4)C(=O)NC2=O)c2ccccc21 (stereo not given) [Bisindolylmaleimide X (hydrochloride)] (2.5 µM)
inactive: [1] 0 | [2] 0 | [3] 0 | [4] 0 | [5] 0 | [6] 0 | [7] 0 | [8] 0 | [9] 0 | [10] 0 | [11] 0 | [12] 0 | [13] 0 | [14] 0 | [15] 0 | [16] 0 | [17] 0 | [18] 0 | [19] 0 | [20] 0

Continuation.

CC(C)c1cnn2c(NCc3ccccc3)cc(NCCCCCCN)nc12 [BS-181 (hydrochloride)] (10 µM)
inactive: [1] 0 | [2] 0 | [3] 0 | [4] 0 | [5] 0 | [6] 0 | [7] 0 | [8] 0 | [9] 0 | [10] 0 | [11] 0 | [12] 0 | [13] 0 | [14] 0 | [15] 0 | [16] 0 | [17] 0 | [18] 0 | [19] 0 | [20] 0

O=S(=O)(c1cccc2c(Cl)cccc12)N1CCCNCC1 (10 µM)
inactive: [1] 0 | [2] 0 | [3] 0 | [4] 0 | [5] 0 | [6] 0 | [7] 0 | [8] 0 | [9] 0 | [10] 0 | [11] 0 | [12] 0 | [13] 0 | [14] 0 | [15] 0 | [16] 0 | [17] 0 | [18] 0 | [19] 0 | [20] 0

CNS(=O)(=O)Nc1nccc(Cc2c(C)c3ccc(Oc4ncccn4)cc3oc2=O)c1F (10 µM)
inactive: [1] 0 | [2] 0 | [3] 0 | [4] 0 | [5] 0 | [6] 0 | [7] 0 | [8] 0 | [9] 0 | [10] 0 | [11] 0 | [12] 0 | [13] 0 | [14] 0 | [15] 0 | [16] 0 | [17] 0 | [18] 0 | [19] 0 | [20] 0

COc1ccc(C(=O)c2cn(C(C)C)c3ncnc(N)c23)cc1NC(=O)Nc1ccc(Cl)cc1Cl (10 µM)
inactive: [1] 0 | [2] 0 | [3] 0 | [4] 0 | [6] 0 | [7] 0 | [8] 0 | [9] 0 | [10] 0 | [11] 0 | [12] 0 | [13] 0 | [14] 0 | [15] 0 | [16] 0 | [17] 0 | [18] 0 | [19] 0 | [20] 0
active: [5] 1

Cc1cc(Nc2ncc(Cl)c(Nc3ccccc3S(=O)(=O)C(C)C)n2)c(OC(C)C)cc1C1CCN(CC(=O)NCCNc2cccc3c2C(=O)N(C2CCC(=O)NC2=O)C3=O)CC1 (stereo not given) (10 µM)
inactive: [1] 0 | [2] 0 | [3] 0 | [4] 0 | [5] 0 | [6] 0 | [7] 0 | [8] 0 | [9] 0 | [10] 0 | [11] 0 | [12] 0 | [13] 0 | [14] 0 | [15] 0 | [16] 0 | [17] 0 | [18] 0 | [19] 0 | [20] 0

CC(=O)NCC(=O)N[C@@H](C)C(=O)N[C@@H](CCC(N)=O)C(=O)N[C@@H](Cc1ccccc1)C(=O)N[C@@H](CO)C(=O)N[C@@H](CCCCN)C(=O)N[C@H](C(=O)N[C@@H](C)C(=O)N[C@@H](C)C(=O)N[C@@H](CCCCN)C(=O)O)[C@@H](C)O (10 µM)
inactive: [1] 0 | [2] 0 | [3] 0 | [4] 0 | [5] 0 | [6] 0 | [7] 0 | [8] 0 | [9] 0 | [10] 0 | [11] 0 | [12] 0 | [13] 0 | [14] 0 | [15] 0 | [16] 0 | [17] 0 | [18] 0 | [19] 0 | [20] 0
